Laboratory results taken from the supplement of paper PMC10849652.
This is one part of the list.

Chains of the proteins cited; added tags and fusions are not shown. Lines headed by an entry give the natural chain unless they say otherwise; changes in a name come on top.
UniProt Q9H081: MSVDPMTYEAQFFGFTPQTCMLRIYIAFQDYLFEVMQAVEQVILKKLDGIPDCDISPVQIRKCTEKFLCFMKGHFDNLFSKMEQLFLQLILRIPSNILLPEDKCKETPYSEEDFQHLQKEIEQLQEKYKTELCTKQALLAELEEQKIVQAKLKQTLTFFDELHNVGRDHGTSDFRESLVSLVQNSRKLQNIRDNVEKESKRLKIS
UniProt Q96T76: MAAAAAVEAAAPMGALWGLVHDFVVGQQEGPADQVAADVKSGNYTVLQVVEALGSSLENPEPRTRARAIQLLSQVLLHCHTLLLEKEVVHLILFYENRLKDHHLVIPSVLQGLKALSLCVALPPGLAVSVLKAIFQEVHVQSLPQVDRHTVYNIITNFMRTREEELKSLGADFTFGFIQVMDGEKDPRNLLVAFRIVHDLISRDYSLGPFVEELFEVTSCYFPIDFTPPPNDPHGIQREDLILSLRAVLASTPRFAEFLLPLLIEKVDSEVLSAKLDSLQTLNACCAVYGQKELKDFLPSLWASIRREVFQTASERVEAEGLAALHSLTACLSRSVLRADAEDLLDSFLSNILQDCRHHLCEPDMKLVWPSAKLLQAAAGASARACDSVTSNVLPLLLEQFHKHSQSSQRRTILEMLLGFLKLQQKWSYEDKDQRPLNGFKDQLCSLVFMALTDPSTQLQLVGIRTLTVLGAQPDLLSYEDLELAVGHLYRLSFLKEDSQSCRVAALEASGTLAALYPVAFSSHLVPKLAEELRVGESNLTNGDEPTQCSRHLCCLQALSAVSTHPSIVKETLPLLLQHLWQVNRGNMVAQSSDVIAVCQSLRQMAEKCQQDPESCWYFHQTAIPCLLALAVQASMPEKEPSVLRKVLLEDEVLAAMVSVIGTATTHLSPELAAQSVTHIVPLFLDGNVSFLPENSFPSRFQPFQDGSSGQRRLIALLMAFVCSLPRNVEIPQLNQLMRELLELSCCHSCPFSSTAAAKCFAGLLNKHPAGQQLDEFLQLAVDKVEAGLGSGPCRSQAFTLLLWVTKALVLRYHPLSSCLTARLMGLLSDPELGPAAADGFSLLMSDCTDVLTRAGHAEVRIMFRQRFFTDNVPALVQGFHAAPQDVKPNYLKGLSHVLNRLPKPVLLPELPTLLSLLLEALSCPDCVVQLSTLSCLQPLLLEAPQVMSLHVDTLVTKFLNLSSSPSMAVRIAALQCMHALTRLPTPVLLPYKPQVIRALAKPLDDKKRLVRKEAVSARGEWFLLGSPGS
UniProt Q9NV56, whole entry, looked up: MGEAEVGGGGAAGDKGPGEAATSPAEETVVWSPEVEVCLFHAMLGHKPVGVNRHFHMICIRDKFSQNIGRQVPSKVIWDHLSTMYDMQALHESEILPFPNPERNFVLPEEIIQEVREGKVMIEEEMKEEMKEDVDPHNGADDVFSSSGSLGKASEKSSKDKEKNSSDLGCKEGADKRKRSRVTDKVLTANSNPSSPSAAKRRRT
UniProt Q8WV92, whole entry, looked up: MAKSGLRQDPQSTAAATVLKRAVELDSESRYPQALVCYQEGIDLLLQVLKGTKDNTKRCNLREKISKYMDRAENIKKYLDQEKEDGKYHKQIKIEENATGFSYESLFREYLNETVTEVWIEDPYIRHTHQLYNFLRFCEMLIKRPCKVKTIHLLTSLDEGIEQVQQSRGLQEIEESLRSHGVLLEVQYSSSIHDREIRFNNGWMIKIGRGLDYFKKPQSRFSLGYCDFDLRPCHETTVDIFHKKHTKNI
UniProt P14174: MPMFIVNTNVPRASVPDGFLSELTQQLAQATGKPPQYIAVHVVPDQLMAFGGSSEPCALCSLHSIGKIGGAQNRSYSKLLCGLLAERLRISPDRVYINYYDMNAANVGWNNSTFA
UniProt Q9BUB5: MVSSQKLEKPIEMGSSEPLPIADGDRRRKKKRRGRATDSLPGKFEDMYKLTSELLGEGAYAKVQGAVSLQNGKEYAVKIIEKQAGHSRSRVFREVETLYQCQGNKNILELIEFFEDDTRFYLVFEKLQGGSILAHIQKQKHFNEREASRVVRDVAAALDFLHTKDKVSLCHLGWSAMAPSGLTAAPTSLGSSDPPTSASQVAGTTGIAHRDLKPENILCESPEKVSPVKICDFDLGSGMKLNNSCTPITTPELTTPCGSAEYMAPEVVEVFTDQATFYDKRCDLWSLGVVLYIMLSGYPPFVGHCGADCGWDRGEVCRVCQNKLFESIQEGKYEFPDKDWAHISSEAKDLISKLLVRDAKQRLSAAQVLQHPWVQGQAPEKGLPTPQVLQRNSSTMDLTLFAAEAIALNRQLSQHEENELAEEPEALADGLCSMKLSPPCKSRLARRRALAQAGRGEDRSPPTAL
UniProt Q13724: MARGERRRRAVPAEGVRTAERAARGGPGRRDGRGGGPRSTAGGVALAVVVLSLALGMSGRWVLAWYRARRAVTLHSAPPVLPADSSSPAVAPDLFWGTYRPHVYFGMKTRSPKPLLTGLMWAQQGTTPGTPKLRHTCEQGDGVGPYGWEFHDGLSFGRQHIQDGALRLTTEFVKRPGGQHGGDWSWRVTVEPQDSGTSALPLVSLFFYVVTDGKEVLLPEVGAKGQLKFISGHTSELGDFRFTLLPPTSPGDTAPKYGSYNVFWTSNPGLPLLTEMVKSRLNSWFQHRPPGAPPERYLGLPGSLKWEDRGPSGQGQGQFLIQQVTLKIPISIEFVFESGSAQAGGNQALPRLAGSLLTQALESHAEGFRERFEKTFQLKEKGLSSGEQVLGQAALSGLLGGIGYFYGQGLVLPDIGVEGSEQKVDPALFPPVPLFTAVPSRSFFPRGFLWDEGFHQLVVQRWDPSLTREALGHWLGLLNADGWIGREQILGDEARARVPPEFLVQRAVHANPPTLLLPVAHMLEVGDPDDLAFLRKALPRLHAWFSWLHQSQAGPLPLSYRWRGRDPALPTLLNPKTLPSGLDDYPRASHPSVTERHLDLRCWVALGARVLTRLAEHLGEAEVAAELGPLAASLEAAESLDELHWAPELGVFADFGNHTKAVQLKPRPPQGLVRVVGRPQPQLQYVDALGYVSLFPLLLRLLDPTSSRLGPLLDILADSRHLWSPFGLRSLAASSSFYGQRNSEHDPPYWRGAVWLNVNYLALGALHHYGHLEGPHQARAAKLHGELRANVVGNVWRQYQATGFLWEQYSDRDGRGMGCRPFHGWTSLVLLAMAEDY
UniProt Q8IY33: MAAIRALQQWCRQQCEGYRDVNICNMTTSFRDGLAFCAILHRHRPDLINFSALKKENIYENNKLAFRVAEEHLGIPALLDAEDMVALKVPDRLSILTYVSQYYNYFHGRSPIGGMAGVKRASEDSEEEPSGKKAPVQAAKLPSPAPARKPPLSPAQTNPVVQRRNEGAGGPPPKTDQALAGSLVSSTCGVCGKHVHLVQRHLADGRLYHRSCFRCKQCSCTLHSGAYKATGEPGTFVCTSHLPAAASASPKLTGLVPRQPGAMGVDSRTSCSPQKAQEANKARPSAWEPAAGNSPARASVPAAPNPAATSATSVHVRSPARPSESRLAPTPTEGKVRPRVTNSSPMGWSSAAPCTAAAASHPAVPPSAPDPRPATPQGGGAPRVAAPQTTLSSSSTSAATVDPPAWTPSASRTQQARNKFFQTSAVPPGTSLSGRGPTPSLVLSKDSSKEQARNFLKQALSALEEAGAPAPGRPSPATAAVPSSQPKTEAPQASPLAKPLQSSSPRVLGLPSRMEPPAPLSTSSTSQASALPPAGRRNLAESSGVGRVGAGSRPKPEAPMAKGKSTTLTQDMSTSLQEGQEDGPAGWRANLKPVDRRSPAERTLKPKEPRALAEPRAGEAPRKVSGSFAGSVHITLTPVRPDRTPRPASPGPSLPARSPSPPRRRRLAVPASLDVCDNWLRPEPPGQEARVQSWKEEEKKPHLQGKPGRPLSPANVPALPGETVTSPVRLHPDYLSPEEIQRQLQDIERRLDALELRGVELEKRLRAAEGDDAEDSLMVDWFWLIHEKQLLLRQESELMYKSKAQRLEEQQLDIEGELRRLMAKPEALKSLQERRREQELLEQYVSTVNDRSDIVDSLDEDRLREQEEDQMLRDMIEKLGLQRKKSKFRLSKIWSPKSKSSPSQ
UniProt Q9H8M7: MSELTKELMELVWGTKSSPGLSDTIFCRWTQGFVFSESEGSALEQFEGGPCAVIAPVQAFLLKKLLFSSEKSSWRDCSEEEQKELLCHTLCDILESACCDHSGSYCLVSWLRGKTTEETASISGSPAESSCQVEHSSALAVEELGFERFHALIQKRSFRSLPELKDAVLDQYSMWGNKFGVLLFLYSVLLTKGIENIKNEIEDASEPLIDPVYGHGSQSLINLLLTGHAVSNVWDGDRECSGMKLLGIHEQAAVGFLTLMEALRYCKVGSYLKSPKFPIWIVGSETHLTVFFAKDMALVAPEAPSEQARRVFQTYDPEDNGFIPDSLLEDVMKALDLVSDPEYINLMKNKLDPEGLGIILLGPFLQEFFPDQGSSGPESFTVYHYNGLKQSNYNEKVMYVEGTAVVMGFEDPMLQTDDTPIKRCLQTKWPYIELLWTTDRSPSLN
UniProt Q9NYP9: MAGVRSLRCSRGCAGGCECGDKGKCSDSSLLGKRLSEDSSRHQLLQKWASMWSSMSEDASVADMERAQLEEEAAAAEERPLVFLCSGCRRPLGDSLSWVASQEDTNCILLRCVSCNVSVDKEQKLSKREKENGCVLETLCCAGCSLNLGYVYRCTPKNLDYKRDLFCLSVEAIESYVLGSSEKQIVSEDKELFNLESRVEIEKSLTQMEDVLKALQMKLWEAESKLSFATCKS

Experiments:
Test in all cases: log2 fold change, soluble protein after heating vs DMSO (PISA); higher = thermal stabilisation; K562 cells, 10 uM, 30 min; active = over 0.2 and 3.5 SD of the protein, either way, in both replicates (recomputed)
[1] = compound: Cc1ccc(NC(=O)c2ccc(CN3CC[C@H](N(C)C)C3)c(C(F)(F)F)c2)cc1Nc1nccc(-c2cncnc2)n1 [bafetinib]
How it was run: (§1)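 Soluble protein was quantified by TMTpro 16plex LC-MS/MS after channel sums were equalised. It was obtained as the supernatant after 21,000xg for 90 min from pooled aliquots of K562 cells (2×10^6 cells/mL, 10 μM compound, 30 min) heated for 3 min across 48°C-58°C and extracted in PBS with 0.5% NP-40 at 4°C. Thermal stability values are relative to control samples and come from duplicates. They are given as log2 fold changes.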

[2] = compound: Cc1cccc(CC(=O)N2CCc3c2ccc(-c2cn(C)c4ncnc(N)c24)c3F)n1
How it was run: as §1

[3] = compound: Cc1cn(-c2cc(NC(=O)c3ccc(C)c(Nc4nccc(-c5cccnc5)n4)c3)cc(C(F)(F)F)c2)cn1 [nilotinib]
How it was run: as §1

[4] = compound: Cc1nc(Nc2n[nH]c3c2CN(C(=O)N[C@H](CN(C)C)c2ccccc2)C3(C)C)c2sccc2n1
How it was run: as §1

[5] = compound: Cc1nc(Nc2ncc(C(=O)Nc3c(C)cccc3Cl)s2)cc(N2CCN(CCO)CC2)n1 [dasatinib]
How it was run: as §1

[6] = compound: Cc1ncc(-c2ccnc(Nc3ccc(S(C)(=O)=O)cc3)n2)n1C(C)C
How it was run: as §1

[7] = compound: Cn1cc(-c2ccc3c(c2)CCN3C(=O)Cc2cccc(C(F)(F)F)c2)c2c(N)ncnc21
How it was run: as §1

[8] = compound: Cn1cc(-c2ccc3nnc(C(F)(F)c4ccc5ncccc5c4)n3n2)cn1
How it was run: as §1

[9] = compound: Cn1cncc1[C@@](N)(c1ccc(Cl)cc1)c1ccc2c(c1)c(-c1cccc(Cl)c1)cc(=O)n2C [tipifarnib]
How it was run: as §1

[10] = compound: FC(F)(F)c1ccc(/C=C/c2nc(COc3ccc(CCCCn4ccnn4)cc3)co2)cc1 [mubritinib]
How it was run: as §1

[11] = compound: NC(=O)Nc1cc(-c2cccc(F)c2)sc1C(=O)N[C@H]1CCCNC1
How it was run: as §1

[12] = compound: NC(=O)c1cnc(N[C@@H]2CCCC[C@@H]2N)nc1Nc1cccc(-n2nccn2)c1
How it was run: as §1

[13] = compound: NC1(c2ccc(-c3nc4ccn5c(=O)[nH]nc5c4cc3-c3ccccc3)cc2)CCC1
How it was run: as §1

[14] = compound: NCC(=O)Nc1ccc(-n2nc(C(F)(F)F)cc2-c2ccc3c(ccc4ccccc43)c2)cc1
How it was run: as §1

[15] = compound: Nc1ccccc1NC(=O)c1ccc(CNC(=O)OCc2cccnc2)cc1 [entinostat]
How it was run: as §1

[16] = compound: O=C(CCCCCCC(=O)Nc1ccccc1)NO [vorinostat]
How it was run: as §1

[17] = compound: O=C(CCCCCCNC(=O)c1cnc(N(c2ccccc2)c2ccccc2Cl)nc1)NO [citarinostat]
How it was run: as §1

[18] = compound: O=C(O)c1ccc2c(c1)nc(Nc1cccc(Cl)c1)c1ccncc12 [silmitasertib]
How it was run: as §1

[19] = compound: O=C1NC(=O)C(c2cnc3ccccn23)=C1c1cn2c3c(cc(F)cc13)CN(C(=O)N1CCCCC1)CC2
How it was run: as §1

[20] = compound: c1cc(OCCN2CCCCC2)cc(-c2n[nH]c3ccc(-c4nnc[nH]4)cc23)c1
How it was run: as §1

Measured: log2 fold change

MRPL55 isoform 2 (UniProt Q7Z7F7)
inactive: [1] 0.19 | [2] 0.131 | [3] -0.048 | [4] 0.094 | [5] -0.03 | [6] -0.036 | [7] -0.051 | [8] -0.094 | [9] 0.107 | [10] 0.07 | [11] -0.057 | [12] 0.01 | [13] -0.049 | [14] 0.042 | [15] 0.045 | [16] -0.069 | [17] -0.007 | [18] -0.057 | [19] 0.075 | [20] -0.142

MRPL40 (UniProt Q9NQ50)
inactive: [1] 0.167 | [2] -0.033 | [3] 0.017 | [4] 0.151 | [5] -0.003 | [6] -0.057 | [7] -0.075 | [8] -0.045 | [9] 0.169 | [10] 0.069 | [11] 0.071 | [12] -0.017 | [13] 0.041 | [14] 0.085 | [15] -0.043 | [16] -0.053 | [17] 0.04 | [18] -0.033 | [19] -0.02 | [20] -0.047

MRPL23 (UniProt Q16540)
inactive: [1] 0.19 | [2] -0.026 | [3] -0.12 | [4] 0.183 | [5] 0.041 | [6] -0.009 | [7] -0.164 | [8] -0.039 | [9] 0.202 | [10] 0.093 | [11] -0.013 | [12] 0.08 | [13] 0.069 | [14] 0.066 | [15] 0.047 | [16] 0.061 | [17] 0.002 | [18] -0.054 | [19] 0.025 | [20] -0.063

MIS12 (UniProt Q9H081)
inactive: [1] -0.05 | [2] 0.017 | [3] -0.062 | [4] -0.048 | [5] -0.114 | [6] 0.037 | [7] -0.028 | [8] 0.005 | [9] 0.016 | [10] 0.071 | [11] 0.016 | [12] -0.084 | [13] -0.079 | [14] -0.101 | [15] 0.027 | [16] 0.123 | [17] 0.014 | [18] 0.016 | [19] 0.02 | [20] -0.081

MMS19 isoform 8 (UniProt Q96T76)
inactive: [1] -0.014 | [2] 0.092 | [3] -0.038 | [4] -0.027 | [5] -0.205 | [6] -0.002 | [7] -0.021 | [8] 0.02 | [9] -0.055 | [10] -0.019 | [11] 0.01 | [12] -0.026 | [13] -0.157 | [14] -0.072 | [15] 0.066 | [16] 0.017 | [17] 0.097 | [18] 0.085 | [19] -0.003 | [20] -0.007

MRGBP (UniProt Q9NV56)
inactive: [1] -0.075 | [2] 0.211 | [3] -0.014 | [4] -0.028 | [5] -0.119 | [6] -0.016 | [7] -0.012 | [8] 0.006 | [9] 0.045 | [10] 0.092 | [11] 0.045 | [12] -0.042 | [13] 0.083 | [14] -0.025 | [15] -0.015 | [16] -0.035 | [17] -0.115 | [18] 0.094 | [19] 0.021 | [20] -0.005

MITD1 (UniProt Q8WV92)
inactive: [1] -0.217 | [2] -0.006 | [3] -0.065 | [4] -0.035 | [5] 0.006 | [6] -0.101 | [7] 0.01 | [8] 0.009 | [9] 0.098 | [10] -0.108 | [11] 0.016 | [12] -0.018 | [13] -0.387 | [14] -0.059 | [15] -0.08 | [16] 0.057 | [17] -0.135 | [18] 0.14 | [19] -0.176 | [20] 0.228

MIF (UniProt P14174)
inactive: [1] 0.012 | [2] 0.034 | [3] 0.088 | [4] 0 | [5] 0.052 | [6] -0.052 | [7] 0.067 | [8] 0.076 | [9] -0.029 | [10] 0.021 | [11] -0.059 | [12] 0.092 | [13] 0.103 | [14] 0.048 | [15] 0.099 | [16] -0.085 | [17] -0.013 | [18] 0.036 | [19] -0.196 | [20] 0.063

MKNK1 (UniProt Q9BUB5)
inactive: [1] 0.088 | [2] 0.057 | [3] 0 | [4] 0.059 | [5] -0.115 | [6] -0.04 | [7] 0.117 | [8] -0.183 | [9] -0.101 | [10] 0.03 | [11] 0.226 | [12] -0.157 | [13] -0.158 | [14] -0.059 | [15] -0.026 | [16] -0.025 | [17] 0.025 | [18] 0.012 | [19] 0.019 | [20] -0.042

MOGS (UniProt Q13724)
inactive: [1] -0.023 | [2] 0.001 | [3] -0.045 | [4] 0.036 | [5] 0.001 | [6] 0.007 | [7] -0.026 | [8] 0.006 | [9] 0.004 | [10] -0.034 | [11] -0.042 | [12] -0.023 | [13] -0.036 | [14] -0.037 | [15] -0.003 | [16] 0.008 | [17] 0.011 | [18] 0.026 | [19] 0.064 | [20] -0.052

MICALL2 (UniProt Q8IY33)
inactive: [1] -0.098 | [2] -0.028 | [3] -0.011 | [4] -0.058 | [5] -0.039 | [6] -0.158 | [7] 0.146 | [8] 0.059 | [9] 0.142 | [10] 0.166 | [11] 0.004 | [12] -0.026 | [13] -0.249 | [14] -0.081 | [15] -0.017 | [16] 0.015 | [17] 0.023 | [18] -0.097 | [19] -0.052 | [20] 0.015

MRPL15 (UniProt Q9P015)
inactive: [1] 0.223 | [2] 0.047 | [3] -0.062 | [4] 0.14 | [5] 0.053 | [6] -0.026 | [7] -0.181 | [8] 0.007 | [9] 0.093 | [10] -0.025 | [11] 0.011 | [12] -0.027 | [13] 0.031 | [14] 0.082 | [15] 0.008 | [16] 0.007 | [17] 0.013 | [18] 0.023 | [19] 0.117 | [20] -0.059

MRPL49 (UniProt Q13405)
inactive: [1] 0.052 | [2] 0.03 | [3] -0.042 | [4] 0.083 | [5] 0.118 | [6] -0.046 | [7] -0.106 | [8] 0.149 | [9] 0.02 | [10] 0.034 | [11] -0.05 | [12] 0.022 | [13] 0.033 | [14] 0.037 | [15] 0.042 | [16] -0.06 | [17] -0.053 | [18] 0.036 | [19] -0.11 | [20] -0.066

MINDY3 (UniProt Q9H8M7)
inactive: [1] -0.028 | [2] -0.042 | [3] -0.019 | [4] -0.017 | [5] -0.137 | [6] -0.078 | [7] 0.037 | [8] 0.052 | [9] -0.044 | [10] 0.001 | [11] -0.029 | [12] -0.135 | [13] -0.061 | [14] -0.076 | [15] 0.018 | [16] 0.033 | [17] 0.066 | [18] -0.062 | [19] -0.124 | [20] -0.048

MIS18A (UniProt Q9NYP9)
inactive: [1] -0.074 | [2] 0.002 | [3] 0.062 | [4] -0.059 | [5] -0.011 | [6] -0.024 | [7] 0.013 | [8] -0.009 | [9] -0.009 | [10] 0.017 | [11] -0.019 | [12] -0.058 | [13] -0.077 | [14] 0.047 | [15] -0.01 | [16] -0.008 | [17] 0.041 | [18] -0.003 | [19] -0.171 | [20] -0.03
